PubChem BioAssay AID493246, Drosophila RNAi Screening Center | 2011
The screen tested about 21,000 reagents; this is a random part of those that have a named target and a result. Of all reagents, 429 (2%) were called active. 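Values are raw and not normalised between plates; calls rest on per-plate z-scores that were not deposited.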 Unmarked entries are inactive. Not given: the amount of reagent, the time to read-out.

Test: 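Genome-wide search for dsRNAs that reduce cell number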 (primary screen)
Cells: Drosophila Kc and S2R+ cells
Reagent: long dsRNA against Drosophila genes
Measured: 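Cell number per well after knock-down, printed as raw plate values; calls were based on per-plate z-scores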
Scale: Kc cell number and S2R+ cell number: higher = more cells remaining
Active means: 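Active when the per-plate z-score of cell number is 3 or more in the direction of fewer cells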

no.	predicted target	dsRNA	Kc cell number, rep 1	Kc cell number, rep 2	S2R+ cell number, rep 1	S2R+ cell number, rep 2
1	CG14696	DRSC14919	1.59e6	1.63e6	1.33e6	1.45e6
2	rho-6 (rhomboid-6)	DRSC02588	1.53e6	1.64e6	1.25e6	1.31e6
3	Pgls (6-phosphogluconolactonase)	DRSC19769	1.57e6	1.57e6	1.07e6	1.22e6
4	CG42613	DRSC13332	1.51e6	1.46e6	1.01e6	1.12e6
5	CG42613	DRSC14769	1.50e6	1.27e6	1.22e6	1.34e6
6	CG42613	DRSC15802	1.67e6	1.77e6	1.36e6	1.44e6
7	CAH14 (Carbonic anhydrase 14)	DRSC04234	1.59e6	1.69e6	1.29e6	4.42e5
8	akirin	DRSC11000	1.22e6	1.38e6	7.89e5	7.71e5
9	HisT (Histamine transporter)	DRSC05051	1.45e6	1.52e6	9.81e5	1.03e6
10	HisT (Histamine transporter)	DRSC05052	1.42e6	1.36e6	8.92e5	1.04e6
11	HisT (Histamine transporter)	DRSC06405	1.25e6	1.38e6	8.02e5	8.42e5
12	bisc (biscotti)	DRSC04083	1.33e6	1.50e6	1.05e6	1.14e6

Next part (2 carried over from the part before).
no.	predicted target	dsRNA	Kc cell number, rep 1	Kc cell number, rep 2	S2R+ cell number, rep 1	S2R+ cell number, rep 2
11	HisT (Histamine transporter)	DRSC06405	1.25e6	1.38e6	8.02e5	8.42e5
12	bisc (biscotti)	DRSC04083	1.33e6	1.50e6	1.05e6	1.14e6
13	Syx4 (Syntaxin 4)	DRSC18586	1.38e6	1.40e6	1.05e6	1.18e6
14	CG13102	DRSC02202	1.64e6	1.63e6	1.05e6	1.17e6
15	TwdlY (TweedleY)	DRSC19153	1.17e6	1.30e6	1.06e6	1.18e6
16	Drip	DRSC07405	1.58e6	1.59e6	1.37e6	1.46e6
17	Amun	DRSC19847	1.38e6	1.34e6	1.00e6	1.07e6
18	red (red Malpighian tubules)	DRSC14477	1.48e6 (active)	1.55e6	7.06e5	7.81e5
19	Regnase-1 (Regnase 1)	DRSC14278	1.42e6	1.47e6	1.11e6	1.19e6
20	Nbr (Nibbler)	DRSC03166	1.24e6	1.29e6	1.11e6	1.15e6
21	Rb97D (Ribonuclear protein at 97D)	DRSC16815	1.59e6	1.63e6	1.01e6	1.12e6
22	Erasp (Endoplasmic reticulum stress-associated serine protease)	DRSC07111	1.53e6	1.58e6	1.02e6	9.66e5
23	C15	DRSC13495	1.65e6	1.57e6	1.10e6	1.24e6
24	C15	DRSC14169	1.37e6	1.35e6	9.06e5	1.01e6
